In patent EP0609437B1, “NOVEL SPHINGOGLYCOLIPID AND USE THEREOF” (KIRIN BEER KABUSHIKI KAISHA, priority 1991, dated 1993):
Some results were stated once for a whole list of compounds, not compound by compound.

Test system: B16 melanoma cells
Assay: Cytotoxicity, 3H-TdR uptake of B16 melanoma cells
Type: cell-based, mouse
Conditions: final concentration up to 10 µg/ml, 42 hours culture plus 8 hours with 3H-TdR

Row | SMILES | influence on the proliferation of the cells (uptake of ^3H-TdR)
1 | CCCCCCCCCCCCCCCCCCCCCCCC(=O)N[C@@H](CO[C@H]1O[C@H](CO)[C@H](O)[C@H](O)[C@H]1O)[C@H](O)CCCCCCCCCCCCCCC [Compound 1, (2S,3R)-1-(α-D-galactopyranosyloxy)-2-tetracosanoylamino-3-octadecanol] | None of the compounds even in the final concentration of 10 µg/ml influenced the proliferation of the cells
2 | CCCCCCCCCCCCCCCCCCCCCC(=O)N[C@@H](CO[C@H]1O[C@H](CO)[C@H](O)[C@H](O)[C@H]1O)[C@H](O)CCCCCCCCCCCCCCC [Compound 2, (2S,3R)-2-docosanoylamino-1-(α-D-galactopyranosyloxy)-3-octadecanol] | None of the compounds even in the final concentration of 10 µg/ml influenced the proliferation of the cells
3 | CCCCCCCCCCCCCCCCCCCC(=O)N[C@@H](CO[C@H]1O[C@H](CO)[C@H](O)[C@H](O)[C@H]1O)[C@H](O)CCCCCCCCCCCCCCC [Compound 3, (2S,3R)-1-(α-D-galactopyranosyloxy)-2-icosanoylamino-3-octadecanol] | None of the compounds even in the final concentration of 10 µg/ml influenced the proliferation of the cells
4 | CCCCCCCCCCCCCCCCCC(=O)N[C@@H](CO[C@H]1O[C@H](CO)[C@H](O)[C@H](O)[C@H]1O)[C@H](O)CCCCCCCCCCCCCCC [Compound 4, (2S,3R)-1-(α-D-galactopyranosyloxy)-2-octadecanoylamino-3-octadecanol] | None of the compounds even in the final concentration of 10 µg/ml influenced the proliferation of the cells
5 | CCCCCCCCCCCCCCC[C@@H](O)[C@H](CO[C@H]1O[C@H](CO)[C@H](O)[C@H](O)[C@H]1O)NC(=O)CCCCCCCCCCCCC [Compound 5, (2S,3R)-1-(α-D-galactopyranosyloxy)-2-tetradecanoylamino-3-octadecanol] | None of the compounds even in the final concentration of 10 µg/ml influenced the proliferation of the cells
6 | CCCCCCCCCCCCCCC[C@@H](O)[C@H](CO[C@H]1O[C@H](CO)[C@H](O)[C@H](O)[C@H]1O)NC(=O)CCCCCCCCC [Compound 6, (2S,3R)-2-decanoylamino-1-(α-D-galactopyranosyloxy)-3-octadecanol] | None of the compounds even in the final concentration of 10 µg/ml influenced the proliferation of the cells
7 | CCCCCCCCCCCCCCC[C@@H](O)[C@H](CO[C@H]1O[C@H](CO)[C@H](O)[C@H](O)[C@H]1O)NC(=O)CCCCCCC [Compound 7, (2S,3R)-1-(α-D-galactopyranosyloxy)-2-octanoylamino-3-octadecanol] | None of the compounds even in the final concentration of 10 µg/ml influenced the proliferation of the cells
8 | CCCCCCCCCCCCCCC[C@@H](O)[C@H](CO[C@H]1O[C@H](CO)[C@H](O)[C@H](O)[C@H]1O)NC(C)=O [Compound 8, (2S,3R)-2-acetamino-1-(α-D-galactopyranosyloxy)-3-octadecanol] | None of the compounds even in the final concentration of 10 µg/ml influenced the proliferation of the cells
9 | CCCCCCCCCCCCCCCCCCCCCCCC(=O)N[C@@H](CO[C@H]1O[C@H](CO)[C@H](O)[C@H](O)[C@H]1O)[C@H](O)CCCCCCCCCCC [Compound 9, (2S,3R)-1-(α-D-galactopyranosyloxy)-2-tetracosanoylamino-3-tetradecanol] | None of the compounds even in the final concentration of 10 µg/ml influenced the proliferation of the cells
10 | CCCCCCCCCCCCCC(=O)N[C@@H](CO[C@H]1O[C@H](CO)[C@H](O)[C@H](O)[C@H]1O)[C@H](O)CCCCCCCCCCCCC [Compound 10, (2S,3R)-1-(α-D-galactopyranosyloxy)-2-tetradecanoylamino-3-hexadecanol] | None of the compounds even in the final concentration of 10 µg/ml influenced the proliferation of the cells
11 | CCCCCCCCCCCCCC(=O)N[C@H](CO[C@H]1O[C@H](CO)[C@H](O)[C@H](O)[C@H]1O)[C@@H](O)CCCCCCCCCCCCC [Compound 11, (2R,3S)-1-(α-D-galactopyranosyloxy)-2-tetradecanoylamino-3-hexadecanol] | None of the compounds even in the final concentration of 10 µg/ml influenced the proliferation of the cells
12 | CCCCCCCCCCCCCC(=O)N[C@@H](CO[C@H]1O[C@H](CO)[C@H](O)[C@H](O)[C@H]1O)[C@@H](O)CCCCCCCCCCCCC [Compound 12, (2S,3S)-1-(α-D-galactopyranosyloxy)-2-tetradecanoylamino-3-hexadecanol] | None of the compounds even in the final concentration of 10 µg/ml influenced the proliferation of the cells
13 | CCCCCCCCCCCCCC(=O)N[C@H](CO[C@H]1O[C@H](CO)[C@H](O)[C@H](O)[C@H]1O)[C@H](O)CCCCCCCCCCCCC [Compound 13, (2R,3R)-1-(α-D-galactopyranosyloxy)-2-tetradecanoylamino-3-hexadecanol] | None of the compounds even in the final concentration of 10 µg/ml influenced the proliferation of the cells
14 | CCCCCCCCCCCCCCCCCCCCCC[C@@H](O)C(=O)N[C@@H](CO[C@H]1O[C@H](CO)[C@H](O)[C@H](O)[C@H]1O)[C@H](O)CCCCCCCCCCCCCCC [Compound 14, (2S,3R)-1-(α-D-galactopyranosyloxy)-2-[(R)-2-hydroxytetracosanoylamino]-3-octadecanol] | None of the compounds even in the final concentration of 10 µg/ml influenced the proliferation of the cells
15 | CCCCCCCCCCCCC/C=C/[C@@H](O)[C@H](CO[C@H]1O[C@H](CO)[C@H](O)[C@H](O)[C@H]1O)NC(=O)CCCCCCCCCCCCCCCCC [Compound 15, (2S,3R,4E)-1-(α-D-galactopyranosyloxy)-2-octadecanoylamino-4-octadecen-3-ol] | None of the compounds even in the final concentration of 10 µg/ml influenced the proliferation of the cells
16 | CCCCCCCCCCCCCCCCCCCCCCCC(=O)N[C@@H](CO[C@H]1O[C@H](CO)[C@H](O)[C@H](O)[C@H]1O)[C@H](O)[C@H](O)CCCCCCCCCCCCCC [Compound 16, (2S,3S,4R)-1-(α-D-galactopyranosyloxy)-2-tetracosanoylamino-3,4-octadecanediol] | None of the compounds even in the final concentration of 10 µg/ml influenced the proliferation of the cells
17 | CCCCCCCCCCCCCCCCCCCCCCCC(=O)N[C@@H](CO[C@H]1O[C@H](CO)[C@H](O)[C@H](O)[C@H]1O)[C@H](O)[C@H](O)CCCCCCCCCCCCC [Compound 17, (2S,3S,4R)-1-(α-D-galactopyranosyloxy)-2-tetracosanoylamino-3,4-heptadecanediol] | None of the compounds even in the final concentration of 10 µg/ml influenced the proliferation of the cells
18 | CCCCCCCCCCCCCCCCCCCCCCCC(=O)N[C@@H](CO[C@H]1O[C@H](CO)[C@H](O)[C@H](O)[C@H]1O)[C@H](O)[C@H](O)CCCCCCCCCCC [Compound 18, (2S,3S,4R)-1-(α-D-galactopyranosyloxy)-2-tetracosanoylamino-3,4-pentadecanediol] | None of the compounds even in the final concentration of 10 µg/ml influenced the proliferation of the cells
19 | CCCCCCCCCCCCCCCCCCCCCCCC(=O)N[C@@H](CO[C@H]1O[C@H](CO)[C@H](O)[C@H](O)[C@H]1O)[C@H](O)[C@H](O)CCCCCCC [Compound 19, (2S,3S,4R)-1-(α-D-galactopyranosyloxy)-2-tetracosanoylamino-3,4-undecanediol] | None of the compounds even in the final concentration of 10 µg/ml influenced the proliferation of the cells
20 | CCCCCCCCCCCCCCCCCCCCCCCCCC(=O)N[C@@H](CO[C@H]1O[C@H](CO)[C@H](O)[C@H](O)[C@H]1O)[C@H](O)[C@H](O)CCCCCCCCCCCCC [Compound 20, (2S,3S,4R)-1-(α-D-galactopyranosyloxy)-2-hexacosanoylamino-3,4-heptadecanediol] | None of the compounds even in the final concentration of 10 µg/ml influenced the proliferation of the cells
21 | CCCCCCCCCCCCCCCCCCCCCC[C@@H](O)C(=O)N[C@@H](CO[C@H]1O[C@H](CO)[C@H](O)[C@H](O)[C@H]1O)[C@H](O)[C@H](O)CCCCCCCCCCCCCC [Compound 21, (2S,3S,4R)-1-(α-D-galactopyranosyloxy)-2-[(R)-2-hydroxytetracosanoylamino]-3,4-octadecanediol] | None of the compounds even in the final concentration of 10 µg/ml influenced the proliferation of the cells
22 | CCCCCCCCCCCCCCCCCCCCCC[C@@H](O)C(=O)N[C@@H](CO[C@H]1O[C@H](CO)[C@H](O)[C@H](O)[C@H]1O)[C@H](O)[C@H](O)CCCCCCCCCCC [Compound 23, (2S,3S,4R)-1-(α-D-galactopyranosyloxy)-2-[(R)-2-hydroxytetracosanoylamino]-3,4-pentadecanediol] | None of the compounds even in the final concentration of 10 µg/ml influenced the proliferation of the cells
23 | CCCCCCCCCCCCCCCCCCCCCC[C@@H](O)C(=O)N[C@@H](CO[C@H]1O[C@H](CO)[C@H](O)[C@H](O)[C@H]1O)[C@H](O)[C@H](O)CCCCCCC [Compound 24, (2S,3S,4R)-1-(α-D-galactopyranosyloxy)-2-[(R)-2-hydroxytetracosanoylamino]-3,4-undecanediol] | None of the compounds even in the final concentration of 10 µg/ml influenced the proliferation of the cells
24 | CCCCCCCCCCCCCCCCCCCCCCCC[C@@H](O)C(=O)N[C@@H](CO[C@H]1O[C@H](CO)[C@H](O)[C@H](O)[C@H]1O)[C@H](O)[C@H](O)CCCCCCCCCCCCCC [Compound 25, (2S,3S,4R)-1-(α-D-galactopyranosyloxy)-2-[(R)-2-hydroxyhexacosanoylamino]-3,4-octadecanediol] | None of the compounds even in the final concentration of 10 µg/ml influenced the proliferation of the cells
